Measurements taken from the supplement of paper PMC10849652.
The other results are listed elsewhere or left out.

Sequences of proteins named here, by UniProt entry; tags and fusion partners are left off. A change or cut given only in a name is not applied to a line headed by its entry.
UniProt Q9UBL6: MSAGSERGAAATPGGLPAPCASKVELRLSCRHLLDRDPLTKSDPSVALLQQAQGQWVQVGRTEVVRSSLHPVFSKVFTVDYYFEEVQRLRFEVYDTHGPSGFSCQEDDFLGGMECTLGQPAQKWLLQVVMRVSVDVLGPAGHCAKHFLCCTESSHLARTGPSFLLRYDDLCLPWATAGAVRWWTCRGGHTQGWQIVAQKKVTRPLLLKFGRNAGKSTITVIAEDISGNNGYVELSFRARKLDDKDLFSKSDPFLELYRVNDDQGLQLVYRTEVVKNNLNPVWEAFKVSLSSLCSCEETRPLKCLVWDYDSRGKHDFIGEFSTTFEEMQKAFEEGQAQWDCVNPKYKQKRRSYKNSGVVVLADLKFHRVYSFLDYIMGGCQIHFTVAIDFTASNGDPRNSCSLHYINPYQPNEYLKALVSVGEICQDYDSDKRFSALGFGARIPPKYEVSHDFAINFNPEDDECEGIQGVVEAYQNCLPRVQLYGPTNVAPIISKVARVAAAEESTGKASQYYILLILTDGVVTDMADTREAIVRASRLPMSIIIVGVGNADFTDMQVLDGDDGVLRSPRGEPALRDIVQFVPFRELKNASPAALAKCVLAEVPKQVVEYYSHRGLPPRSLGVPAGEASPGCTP
UniProt Q14061: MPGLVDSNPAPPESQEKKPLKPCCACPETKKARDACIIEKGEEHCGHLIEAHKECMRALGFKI
UniProt P19784, whole entry, looked up: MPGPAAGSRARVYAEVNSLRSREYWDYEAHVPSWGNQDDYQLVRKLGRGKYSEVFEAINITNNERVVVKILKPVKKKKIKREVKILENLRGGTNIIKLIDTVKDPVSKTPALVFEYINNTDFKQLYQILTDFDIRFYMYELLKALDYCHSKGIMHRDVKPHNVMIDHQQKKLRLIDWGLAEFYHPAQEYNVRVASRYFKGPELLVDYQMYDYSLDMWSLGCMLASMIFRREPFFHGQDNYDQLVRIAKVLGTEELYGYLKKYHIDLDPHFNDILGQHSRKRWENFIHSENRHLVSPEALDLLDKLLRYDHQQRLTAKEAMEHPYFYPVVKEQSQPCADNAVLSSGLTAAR
UniProt Q9HCP0: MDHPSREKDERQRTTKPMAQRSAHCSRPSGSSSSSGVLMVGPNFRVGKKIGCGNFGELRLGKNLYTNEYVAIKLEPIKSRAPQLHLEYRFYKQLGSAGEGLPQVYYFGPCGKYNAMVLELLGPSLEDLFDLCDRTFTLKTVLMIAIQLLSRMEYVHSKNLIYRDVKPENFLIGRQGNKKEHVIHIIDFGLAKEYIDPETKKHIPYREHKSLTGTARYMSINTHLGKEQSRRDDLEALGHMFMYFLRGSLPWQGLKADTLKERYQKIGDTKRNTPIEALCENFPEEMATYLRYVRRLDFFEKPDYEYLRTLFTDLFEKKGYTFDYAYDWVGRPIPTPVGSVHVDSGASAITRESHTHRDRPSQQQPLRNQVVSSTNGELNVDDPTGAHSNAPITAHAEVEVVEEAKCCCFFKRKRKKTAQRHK
UniProt P46108: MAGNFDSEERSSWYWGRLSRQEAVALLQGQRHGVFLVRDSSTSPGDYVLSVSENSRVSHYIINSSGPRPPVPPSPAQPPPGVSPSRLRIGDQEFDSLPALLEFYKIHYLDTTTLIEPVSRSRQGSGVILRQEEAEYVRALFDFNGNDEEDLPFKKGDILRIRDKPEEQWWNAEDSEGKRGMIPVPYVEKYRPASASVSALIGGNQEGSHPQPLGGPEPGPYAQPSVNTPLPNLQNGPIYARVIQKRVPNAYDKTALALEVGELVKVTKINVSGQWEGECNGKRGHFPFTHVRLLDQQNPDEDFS
UniProt P23786: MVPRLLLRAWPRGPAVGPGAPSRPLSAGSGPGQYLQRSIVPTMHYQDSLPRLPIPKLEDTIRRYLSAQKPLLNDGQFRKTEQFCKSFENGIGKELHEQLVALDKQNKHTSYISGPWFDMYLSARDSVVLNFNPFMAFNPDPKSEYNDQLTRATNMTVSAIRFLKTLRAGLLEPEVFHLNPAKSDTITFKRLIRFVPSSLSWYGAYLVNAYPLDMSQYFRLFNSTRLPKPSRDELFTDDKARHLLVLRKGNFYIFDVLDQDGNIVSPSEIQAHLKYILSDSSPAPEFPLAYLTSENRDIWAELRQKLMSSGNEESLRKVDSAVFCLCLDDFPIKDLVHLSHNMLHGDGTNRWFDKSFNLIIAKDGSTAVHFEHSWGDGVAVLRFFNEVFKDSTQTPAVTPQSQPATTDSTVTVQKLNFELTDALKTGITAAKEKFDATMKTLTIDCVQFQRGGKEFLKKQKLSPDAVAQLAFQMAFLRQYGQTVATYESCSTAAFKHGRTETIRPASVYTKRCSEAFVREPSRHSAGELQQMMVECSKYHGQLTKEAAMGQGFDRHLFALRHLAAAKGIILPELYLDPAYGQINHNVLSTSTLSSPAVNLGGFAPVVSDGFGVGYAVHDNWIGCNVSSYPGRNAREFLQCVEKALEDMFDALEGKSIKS
UniProt Q99807: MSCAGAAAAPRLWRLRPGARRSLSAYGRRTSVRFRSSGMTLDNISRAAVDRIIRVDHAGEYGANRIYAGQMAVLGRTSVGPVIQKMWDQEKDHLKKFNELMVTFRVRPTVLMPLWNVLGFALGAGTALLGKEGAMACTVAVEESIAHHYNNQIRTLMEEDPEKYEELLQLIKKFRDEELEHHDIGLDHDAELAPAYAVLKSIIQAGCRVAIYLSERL
UniProt Q9UJA2: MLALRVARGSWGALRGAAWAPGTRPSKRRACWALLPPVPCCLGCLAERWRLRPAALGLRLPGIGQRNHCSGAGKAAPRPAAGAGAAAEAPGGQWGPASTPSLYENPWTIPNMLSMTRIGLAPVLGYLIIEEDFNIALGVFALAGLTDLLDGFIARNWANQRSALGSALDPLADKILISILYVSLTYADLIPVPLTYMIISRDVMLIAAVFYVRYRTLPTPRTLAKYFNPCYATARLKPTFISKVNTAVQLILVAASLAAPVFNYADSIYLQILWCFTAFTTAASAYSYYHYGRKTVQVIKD
UniProt Q86X83, whole entry, looked up: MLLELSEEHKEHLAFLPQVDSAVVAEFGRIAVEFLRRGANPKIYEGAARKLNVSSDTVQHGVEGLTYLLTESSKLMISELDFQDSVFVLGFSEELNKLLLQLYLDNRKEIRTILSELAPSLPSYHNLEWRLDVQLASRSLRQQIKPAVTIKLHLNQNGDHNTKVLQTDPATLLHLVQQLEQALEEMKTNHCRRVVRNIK
UniProt P21964: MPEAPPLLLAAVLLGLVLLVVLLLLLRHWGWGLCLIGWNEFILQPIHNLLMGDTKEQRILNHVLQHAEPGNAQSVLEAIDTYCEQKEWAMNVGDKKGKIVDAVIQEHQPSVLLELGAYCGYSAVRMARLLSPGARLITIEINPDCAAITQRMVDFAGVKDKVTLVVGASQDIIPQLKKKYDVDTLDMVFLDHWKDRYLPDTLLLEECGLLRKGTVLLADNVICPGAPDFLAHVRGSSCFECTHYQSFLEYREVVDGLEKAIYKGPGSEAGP
UniProt Q53ET0: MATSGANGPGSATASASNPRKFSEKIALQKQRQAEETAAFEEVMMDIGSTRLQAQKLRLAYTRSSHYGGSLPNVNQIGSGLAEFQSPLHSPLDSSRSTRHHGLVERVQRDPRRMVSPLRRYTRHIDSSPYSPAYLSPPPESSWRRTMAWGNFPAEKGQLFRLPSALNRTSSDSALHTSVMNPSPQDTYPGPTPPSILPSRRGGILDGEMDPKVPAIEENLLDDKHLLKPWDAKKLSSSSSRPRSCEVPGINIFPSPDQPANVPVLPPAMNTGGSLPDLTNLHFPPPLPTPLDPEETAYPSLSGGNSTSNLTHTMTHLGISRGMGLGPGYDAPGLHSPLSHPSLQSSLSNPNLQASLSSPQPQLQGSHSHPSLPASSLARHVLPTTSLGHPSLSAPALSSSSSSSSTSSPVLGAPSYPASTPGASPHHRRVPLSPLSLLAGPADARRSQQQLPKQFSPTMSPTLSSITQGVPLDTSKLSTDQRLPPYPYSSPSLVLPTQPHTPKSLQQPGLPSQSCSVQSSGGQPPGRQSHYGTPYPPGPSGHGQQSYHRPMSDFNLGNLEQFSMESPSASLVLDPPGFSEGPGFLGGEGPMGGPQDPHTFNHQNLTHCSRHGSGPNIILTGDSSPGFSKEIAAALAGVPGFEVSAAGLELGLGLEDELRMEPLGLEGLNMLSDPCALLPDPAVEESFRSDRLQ
UniProt Q96H96: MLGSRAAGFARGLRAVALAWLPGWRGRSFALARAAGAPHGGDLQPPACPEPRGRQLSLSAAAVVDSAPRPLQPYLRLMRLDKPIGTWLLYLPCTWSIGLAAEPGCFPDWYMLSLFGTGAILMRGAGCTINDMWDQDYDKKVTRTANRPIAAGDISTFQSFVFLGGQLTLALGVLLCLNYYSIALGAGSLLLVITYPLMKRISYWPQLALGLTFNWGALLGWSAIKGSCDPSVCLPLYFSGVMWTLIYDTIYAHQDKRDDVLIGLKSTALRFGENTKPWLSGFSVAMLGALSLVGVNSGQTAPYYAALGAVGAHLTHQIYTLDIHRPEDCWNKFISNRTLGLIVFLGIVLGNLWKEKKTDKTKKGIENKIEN
UniProt Q49AN0: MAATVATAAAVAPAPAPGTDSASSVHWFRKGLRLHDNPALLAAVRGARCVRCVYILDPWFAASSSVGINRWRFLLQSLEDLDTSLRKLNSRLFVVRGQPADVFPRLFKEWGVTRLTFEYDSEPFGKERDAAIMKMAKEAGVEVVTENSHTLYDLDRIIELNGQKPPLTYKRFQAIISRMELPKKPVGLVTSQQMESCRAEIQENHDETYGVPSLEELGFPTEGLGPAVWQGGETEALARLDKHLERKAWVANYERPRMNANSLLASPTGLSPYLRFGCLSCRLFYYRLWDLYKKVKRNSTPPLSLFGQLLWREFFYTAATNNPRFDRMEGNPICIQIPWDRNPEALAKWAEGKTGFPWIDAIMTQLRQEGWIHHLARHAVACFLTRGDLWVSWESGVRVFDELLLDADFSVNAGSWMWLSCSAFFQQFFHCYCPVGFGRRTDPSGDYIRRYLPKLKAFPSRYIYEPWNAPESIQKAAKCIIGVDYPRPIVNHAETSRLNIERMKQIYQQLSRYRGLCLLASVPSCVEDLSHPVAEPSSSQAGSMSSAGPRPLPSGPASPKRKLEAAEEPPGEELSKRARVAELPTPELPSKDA
UniProt P02461, whole entry, looked up: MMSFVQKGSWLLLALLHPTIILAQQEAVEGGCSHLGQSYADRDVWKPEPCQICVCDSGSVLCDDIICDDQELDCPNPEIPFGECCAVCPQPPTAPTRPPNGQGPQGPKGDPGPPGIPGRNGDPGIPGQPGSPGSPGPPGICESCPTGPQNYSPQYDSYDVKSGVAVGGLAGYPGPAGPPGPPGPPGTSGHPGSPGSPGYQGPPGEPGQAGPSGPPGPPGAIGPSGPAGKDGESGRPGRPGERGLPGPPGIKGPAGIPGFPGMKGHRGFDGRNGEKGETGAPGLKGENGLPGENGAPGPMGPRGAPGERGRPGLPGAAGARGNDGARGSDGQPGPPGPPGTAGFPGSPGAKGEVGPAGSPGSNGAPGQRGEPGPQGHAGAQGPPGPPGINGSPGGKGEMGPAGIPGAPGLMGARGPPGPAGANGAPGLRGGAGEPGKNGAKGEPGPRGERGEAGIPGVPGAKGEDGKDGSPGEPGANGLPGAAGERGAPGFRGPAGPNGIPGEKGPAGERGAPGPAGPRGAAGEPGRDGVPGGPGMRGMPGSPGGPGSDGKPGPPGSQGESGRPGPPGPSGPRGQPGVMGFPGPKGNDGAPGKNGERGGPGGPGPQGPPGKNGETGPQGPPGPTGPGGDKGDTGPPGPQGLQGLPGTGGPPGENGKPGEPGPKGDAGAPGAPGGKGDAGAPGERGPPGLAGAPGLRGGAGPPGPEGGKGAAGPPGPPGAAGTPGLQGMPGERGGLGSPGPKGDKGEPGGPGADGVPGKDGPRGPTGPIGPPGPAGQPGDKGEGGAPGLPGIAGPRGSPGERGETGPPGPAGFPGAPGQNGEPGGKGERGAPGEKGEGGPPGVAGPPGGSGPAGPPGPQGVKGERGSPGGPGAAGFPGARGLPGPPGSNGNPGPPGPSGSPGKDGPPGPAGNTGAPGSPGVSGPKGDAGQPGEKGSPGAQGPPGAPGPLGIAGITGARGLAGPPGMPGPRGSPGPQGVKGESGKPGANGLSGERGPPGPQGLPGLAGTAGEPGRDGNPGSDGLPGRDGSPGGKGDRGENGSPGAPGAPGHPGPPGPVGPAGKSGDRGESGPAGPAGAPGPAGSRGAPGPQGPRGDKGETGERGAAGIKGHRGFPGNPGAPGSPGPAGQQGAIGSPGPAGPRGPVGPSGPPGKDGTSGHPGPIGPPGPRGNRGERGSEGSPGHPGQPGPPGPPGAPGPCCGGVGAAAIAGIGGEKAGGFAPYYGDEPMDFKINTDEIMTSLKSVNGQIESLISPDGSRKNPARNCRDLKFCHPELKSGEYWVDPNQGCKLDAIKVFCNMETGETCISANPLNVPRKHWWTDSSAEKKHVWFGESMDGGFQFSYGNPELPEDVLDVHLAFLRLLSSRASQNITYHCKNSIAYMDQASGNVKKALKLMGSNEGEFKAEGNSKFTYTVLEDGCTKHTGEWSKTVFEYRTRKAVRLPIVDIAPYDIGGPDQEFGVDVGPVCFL

Assays:
Test in all cases: log2 fold change, soluble protein after heating vs DMSO (PISA); higher = thermal stabilisation; K562 cells, 10 uM, 30 min; active = over 0.2 and 3.5 SD of the protein, either way, in both replicates (recomputed)
[1] = compound: CN1CCN(CCOc2cc(OC3CCOCC3)c3c(Nc4c(Cl)ccc5c4OCO5)ncnc3c2)CC1 [saracatinib]
In short: (§1)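 For each measurement, 10 μM compound was applied for 30 min to K562 cells at 2×10^6 cells/mL. Aliquots were heated for 3 min across 48°C-58°C, pooled, and extracted in PBS with 0.5% NP-40 at 4°C; the supernatant after 21,000xg for 90 min was soluble protein. This was quantified by TMTpro 16plex LC-MS/MS with channel sums equalised, and thermal stability was reported relative to control samples from duplicates, on a log2 fold-change scale.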

[2] = compound: CN1CCN(c2nc(C3=C(c4c[nH]c5ccccc45)C(=O)NC3=O)c3ccccc3n2)CC1 [sotrastaurin]
In short: as §1

[3] = compound: CN1CCc2c(c3ccccc3n2Cc2ccc(C(=O)NO)cc2)C1 [Tubastatin A]
In short: as §1

[4] = compound: CNC(=O)C1=CC=CC=C1NC2=NC(=NC=C2Cl)NC3=C(C=C(C=C3)N4CCOCC4)OC
In short: as §1

[5] = compound: CNC(=O)c1ccc(Nc2ncc(C(F)(F)F)c(NCc3nccnc3N(C)S(C)(=O)=O)n2)cc1 [defactinib]
In short: as §1

[6] = compound: CNc1nc(-c2ccc3c(N)n[nH]c3c2)cc(N2C[C@@H](C(=O)NC3CCCCC3)CC[C@H]2C)n1
In short: as §1

[7] = compound: COC(=O)[C@H](CCSC)NC(=O)C1=C(C=C(C=C1)NC[C@H](CS)N)C2=CC=CC=C2
In short: as §1

[8] = compound: CN1CC[C@H](c2c(O)cc(O)c3c(=O)cc(-c4ccccc4Cl)oc23)[C@H](O)C1 [alvocidib]
In short: as §1

[9] = compound: CNCc1ccc(-c2[nH]c3cc(F)cc4c3c2CCNC4=O)cc1 [rucaparib]
In short: as §1

[10] = compound: COC(=O)N[C@@H](C)CNc1nccc(-c2cn(C(C)C)nc2-c2cc(Cl)cc(NS(C)(=O)=O)c2F)n1 [encorafenib]
In short: as §1

Target	log2 fold change [1]	log2 fold change [2]	log2 fold change [3]	log2 fold change [4]	log2 fold change [5]	log2 fold change [6]	log2 fold change [7]	log2 fold change [8]	log2 fold change [9]	log2 fold change [10]
CRMP1 isoform 2 (UniProt Q14194)	inactive: -0.059	inactive: 0.107	inactive: 0.025	inactive: 0.024	inactive: -0.149	inactive: -0.041	inactive: 0.025			
CPNE7 (UniProt Q9UBL6)	inactive: 0.056		inactive: -0.094	inactive: -0.021	inactive: -0.194	inactive: 0.061	inactive: -0.042	inactive: -0.165	inactive: 0.057	inactive: 0.006
COX17 (UniProt Q14061)	inactive: -0.092	inactive: -0.023	inactive: -0.113	inactive: -0.008	inactive: -0.072	inactive: 0.023	inactive: 0.147			
CSNK2A2 (UniProt P19784)	inactive: 0.029	inactive: 0.024	inactive: -0.042	inactive: 0.214	inactive: -0.067	inactive: -0.017	inactive: -0.052		inactive: -0.123	inactive: -0.039
CSNK1G1 (UniProt Q9HCP0)	inactive: 0.026	inactive: -0.103		inactive: 0.15		inactive: -0.086			inactive: 0.144	inactive: 0.113
CRK (UniProt P46108)	active: -0.768	inactive: 0	inactive: 0.092	inactive: -0.003	inactive: -0.056	inactive: -0.006	inactive: -0.024		inactive: -0.025	inactive: 0.021
CRTC1 isoform 2 (UniProt Q6UUV9)	inactive: -0.026	inactive: 0.011	inactive: -0.009	inactive: -0.101	inactive: -0.021	inactive: -0.062	inactive: 0.009			
COQ9 (UniProt O75208)	inactive: -0.009	inactive: -0.052	inactive: -0.045	inactive: -0.047	inactive: -0.045	inactive: 0.042	inactive: -0.016		inactive: 0.001	inactive: -0.013
CPSF6 isoform 2 (UniProt Q16630)	inactive: -0.014	inactive: 0.031	inactive: 0.015	inactive: -0.217	inactive: -0.009	inactive: 0.008	inactive: 0.007		inactive: 0.016	inactive: -0.043
CSNK2A1 (UniProt P68400)	inactive: 0.016	inactive: 0.059	inactive: -0.019	active: 0.263	inactive: -0.113	inactive: -0.045	inactive: -0.034		inactive: -0.079	inactive: -0.038
CPT2 (UniProt P23786)	inactive: -0.089	inactive: -0.136	inactive: 0.032	inactive: 0.147	inactive: -0.164	inactive: 0.363	inactive: -0.057		inactive: -0.096	inactive: -0.074
CPSF2 (UniProt Q9P2I0)	inactive: -0.015	inactive: -0.084	inactive: 0.065	inactive: 0.014	inactive: -0.084	inactive: 0.008	inactive: 0.078		inactive: 0.062	inactive: 0
COQ7 (UniProt Q99807)	inactive: 0.024	inactive: 0.055	inactive: -0.009	inactive: 0.043	inactive: 0.03	inactive: -0.028	inactive: 0.059		inactive: -0.062	inactive: -0.058
CORO2A (UniProt Q92828)	inactive: 0.016	inactive: 0.015	inactive: -0.055	inactive: 0.053	inactive: -0.015	inactive: -0.097	inactive: -0.028		inactive: -0.266	inactive: 0.21
COX6B1 (UniProt P14854)	inactive: 0.024	inactive: -0.012	inactive: -0.069	inactive: 0.015	inactive: -0.023	inactive: -0.061	inactive: 0.008		inactive: 0.022	inactive: -0.043
CRLF3 (UniProt Q8IUI8)	inactive: -0.209	inactive: -0.124	inactive: 0.054	inactive: 0.051	inactive: -0.076	inactive: 0.036	inactive: -0.013		inactive: 0.026	inactive: 0.074
CSK (UniProt P41240)	inactive: -0.01	inactive: -0.069	inactive: 0.048	inactive: 0.097	inactive: -0.105	inactive: 0.007	inactive: -0.048		inactive: -0.008	inactive: 0.013

Reprinted from the results shown (2 entries):
Target	log2 fold change [1]	log2 fold change [2]	log2 fold change [3]	log2 fold change [4]	log2 fold change [5]	log2 fold change [6]	log2 fold change [7]	log2 fold change [8]	log2 fold change [9]	log2 fold change [10]
CPT2 (UniProt P23786)	inactive: -0.089	inactive: -0.136	inactive: 0.032	inactive: 0.147	inactive: -0.164	inactive: 0.363	inactive: -0.057		inactive: -0.096	inactive: -0.074
CPSF2 (UniProt Q9P2I0)	inactive: -0.015	inactive: -0.084	inactive: 0.065	inactive: 0.014	inactive: -0.084	inactive: 0.008	inactive: 0.078		inactive: 0.062	inactive: 0

(next part)

Target	log2 fold change [1]	log2 fold change [2]	log2 fold change [3]	log2 fold change [4]	log2 fold change [5]	log2 fold change [6]	log2 fold change [7]	log2 fold change [8]	log2 fold change [9]	log2 fold change [10]
CRYM-AS1 (UniProt A6NIL9)	inactive: -0.092	inactive: -0.041	inactive: 0.119	inactive: -0.347	inactive: -0.065	inactive: 0.103	inactive: -0.078		inactive: -0.356	inactive: 0.024
COPS8 (UniProt Q99627)	inactive: -0.013	inactive: -0.052	inactive: -0.025	inactive: -0.039	inactive: -0.03	inactive: 0.018	inactive: -0.021		inactive: -0.015	inactive: 0.011
COX5B (UniProt P10606)	inactive: -0.076	inactive: 0.113	inactive: 0.052	inactive: 0	inactive: -0.046	inactive: 0.024	inactive: 0.006		inactive: -0.01	inactive: -0.033
CSNK1A1L (UniProt Q8N752)	inactive: 0.026	inactive: -0.007	inactive: 0.038	inactive: 0.005	inactive: 0.094	inactive: -0.05	inactive: -0.018		inactive: 0.06	inactive: 0.038
CSE1L (UniProt P55060)	inactive: 0.032	inactive: -0.076	inactive: -0.033	inactive: 0.016	inactive: -0.092	inactive: -0.057	inactive: -0.013		inactive: -0.059	inactive: 0.022
CRLS1 (UniProt Q9UJA2)	inactive: 0.144	inactive: -0.282	inactive: -0.079	inactive: 0.043	inactive: -0.088	inactive: -0.052	inactive: 0.067		inactive: -0.088	inactive: 0.004
COMMD2 (UniProt Q86X83)	inactive: -0.17	inactive: 0.043	inactive: 0.179	active: 0.411	inactive: -0.088	inactive: 0.039	inactive: 0.012		inactive: 0.034	inactive: -0.005
COMT (UniProt P21964)	inactive: -0.046	inactive: 0.109	active: 0.4	inactive: 0.008	inactive: -0.006	inactive: 0.029	inactive: -0.09		inactive: -0.018	inactive: -0.039
CPD (UniProt O75976)	inactive: -0.047	inactive: -0.011	inactive: 0.03	inactive: -0.002	inactive: -0.026	inactive: -0.006	inactive: 0.012		inactive: 0.017	inactive: 0.042
COL6A3 (UniProt P12111)				inactive: 0.064					inactive: -0.081	inactive: -0.042
CRTC2 (UniProt Q53ET0)		inactive: -0.09	inactive: -0.031	inactive: -0.269	inactive: -0.218		inactive: -0.103		inactive: 0.053	inactive: -0.026
CRY1 (UniProt Q16526)					inactive: -0.025		inactive: -0.104			
COMMD3-BMI1 (UniProt R4GMX3)		inactive: -0.024	inactive: -0.074							
COQ2 (UniProt Q96H96)				inactive: -0.064					inactive: -0.052	inactive: -0.01
CRY2 (UniProt Q49AN0)	inactive: -0.042		inactive: -0.037		inactive: -0.014	inactive: 0.073	inactive: 0.015			
COL3A1 (UniProt P02461)	inactive: 0.129		inactive: -0.144	inactive: 0.072	inactive: 0.042	inactive: -0.065	inactive: 0.13	inactive: -0.036		
